# Measured values reported in PubChem BioAssay AID1259354 (Paczesny and Yang Labs, IUPUI and University of Michigan, 2018).
# By UniProt entry, the sequences of proteins in these tests, tags left out. Where a name states a change or a piece, a line headed by the entry shows the natural chain unless it says otherwise.
# UniProt Q01638: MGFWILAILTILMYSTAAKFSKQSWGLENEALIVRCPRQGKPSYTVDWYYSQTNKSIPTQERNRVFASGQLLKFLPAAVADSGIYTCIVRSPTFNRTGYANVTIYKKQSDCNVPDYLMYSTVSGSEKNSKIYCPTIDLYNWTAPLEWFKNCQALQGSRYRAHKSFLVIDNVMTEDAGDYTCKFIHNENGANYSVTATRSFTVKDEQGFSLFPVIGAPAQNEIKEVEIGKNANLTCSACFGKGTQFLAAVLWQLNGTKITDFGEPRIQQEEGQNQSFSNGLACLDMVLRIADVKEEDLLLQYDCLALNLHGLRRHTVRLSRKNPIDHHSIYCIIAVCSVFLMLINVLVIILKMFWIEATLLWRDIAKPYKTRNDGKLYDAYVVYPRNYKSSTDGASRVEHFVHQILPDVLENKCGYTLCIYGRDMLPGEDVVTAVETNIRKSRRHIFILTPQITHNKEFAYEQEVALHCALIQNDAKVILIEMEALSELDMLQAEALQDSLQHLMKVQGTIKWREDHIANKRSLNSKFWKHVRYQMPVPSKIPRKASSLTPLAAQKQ
# Out of some 78,000 compounds screened, about 1,800 (2.3%) were called active. The shares of active, inactive and inconclusive entries below differ from those in the screen. No stated cut-off is given here; in the data, active means inhibition above about 30%; inconclusive means mostly about 10% to 28%; inactive means weaker than that.
# Target: Interleukin-1 receptor-like 1 (Homo sapiens) (UniProt Q01638)
# Experiment: blocks human ST2 binding to IL-33, primary screen, biochemical, AlphaLISA (AID 1259354)
# Details: AlphaLISA ST2-Fc/biotin-IL-33 interaction, 1 h; at 17 µM, hits give high values
row,SMILES,inhibition
1,CCC1=C(c2ccc(OC)cc2)S(=O)(=O)N(CC(=O)NC(C)CCc2ccccc2)C1=O (stereo unspecified),inactive
2,CC(C)N(Cc1cnn(C)c1)C(=O)c1ccc(OC2CCN(C(=O)C3CC3)CC2)cc1,inconclusive: 12%
3,COc1cccc(C(N)CC(=O)O)c1 (stereo unspecified),inconclusive: 11%
4,Cc1cc(C)n(CCC(=O)NCCNC(=O)c2ccccc2Cl)c(=O)n1,inactive
5,CC(=O)Nc1ccc(Cl)c(C(=O)N(C)Cc2ccsc2)c1,inconclusive: 18%
6,Cc1nccc(-c2ccc(-c3ccc4c(c3)OCO4)cc2)c1-c1nn[nH]n1,inactive
7,CCc1c(C)sc(NC(=O)CSc2n[nH]c(C)c2[N+](=O)[O-])c1C#N,inconclusive: 14%
8,COc1cc(C(=O)O/N=C2\CCSc3ccccc32)cc(OC)c1OC,inconclusive: 10%
9,Cc1cc(C)n2nc(C(=O)N3CCOC(CCCc4ccccc4)C3)cc2n1 (stereo unspecified),inconclusive: 16%
10,O=C1CCC(=O)N1c1ccc(Oc2ccccc2)cc1,inconclusive: 10%
11,COc1cccc(OC)c1-c1ccc2nc(CO)[nH]c2c1,inactive
12,Cc1c(Cl)c([N+](=O)[O-])nn1CCCC(=O)Nc1sc2c(c1C#N)CCCC2,inconclusive: 10%
13,CC1C(C#N)=C(N)SC(N)=C1C#N,inconclusive: 26%
14,Cc1nn(S(=O)(=O)c2ccccc2)c(C)c1Sc1ccc([N+](=O)[O-])cc1,inactive
15,COc1ccc(-c2ccc(N)nc2)c(C)c1,inconclusive: 18%
16,O=C(CCS(=O)(=O)c1cccc2nsnc12)Nc1ccc(Cl)c(C(F)(F)F)c1,inconclusive: 12%
17,c1ccc(CN=C2CCCc3ccccc3N2)cc1,inconclusive: 22%
18,CCc1ccc(NC(=O)CN(c2ccc(I)cc2)S(C)(=O)=O)cc1,inactive
19,O=C(NCc1cccnc1)c1cc(-c2ccncc2)nc2ccccc12,inconclusive: 10%
20,COc1ccccc1NC1=CC(=NS(=O)(=O)c2ccc(Cl)cc2)c2ccccc2C1=O,active: 95%
21,C#CCNC(=O)CC[C@H]1CNC(=O)[C@@H]2[C@@H](CCN2CC(C)(C)C)N1C,inactive
22,COc1ccc(NC(=O)Cn2cnc3c(cnn3-c3ccc(Cl)cc3)c2=O)cc1OC,inconclusive: 13%
23,Cc1ccc(C2=N/C(=C\c3ccc(Br)o3)C(=O)O2)cc1[N+](=O)[O-],inconclusive: 21%
24,COc1ccc(OC)c(-c2cc(N)nc(N3CCOCC3)n2)c1,inconclusive: 10%
25,CCC(=O)Nc1nc2cc(NC(=O)C3CCN(S(=O)(=O)N4CCOCC4)CC3)ccc2s1,inactive
26,CCn1c(CC2CCNCC2)nn(Cc2nccs2)c1=O,inconclusive: 10%

# Some of these compounds in order of SMILES length, smallest number first.
row,SMILES,inhibition
7,CCc1c(C)sc(NC(=O)CSc2n[nH]c(C)c2[N+](=O)[O-])c1C#N,inconclusive: 14%
12,Cc1c(Cl)c([N+](=O)[O-])nn1CCCC(=O)Nc1sc2c(c1C#N)CCCC2,inconclusive: 10%
25,CCC(=O)Nc1nc2cc(NC(=O)C3CCN(S(=O)(=O)N4CCOCC4)CC3)ccc2s1,inactive
